These results are taken from the supplement of paper PMC9744312.

The cell viability is a read-out of living cells in per cent, often relative to untreated cells.

SMILES strings stand for the structures. Where a name gives a salt, the structure may show the parent alone. The list shows a part of the results. Single values of this set are uncertain.

The test system of this test is Peyronie's disease tunica albuginea primary fibroblasts. The test can be described thus: cell viability (DRAQ5 nuclear stain) relative to TGF-beta1-only control; higher = more viable cells. Conditions: 10 µM; TGF-beta1 10 ng/mL; 72 h.
Consider `NC(=O)CN1CC(O)CC1=O` (stereo not drawn) [Oxiracetam], for which the cell viability stood at 89.5%.
As to `C[CH2][Hg][S]c1ccccc1C(=O)[O-].[Na+]` [Thimerosal], the cell viability was 16.5%.
Next, `O=C(O[C@H]1C[C@H]2CC[C@@H](C1)[N+]21CCCC1)C(O)(c1ccccc1)c1ccccc1` [Trospium chloride]: 88.4%; `COc1ccc(C(=O)N2CCCC2=O)cc1` [Aniracetam]: 52.1%.
Next, `O=C(O)CCCc1ccc(N(CCCl)CCCl)cc1` [Chloroambucil]: 73%.
In the case of `CC[C@@H](C(N)=O)N1CCCC1=O` [Levetiracetam], the cell viability was determined as 88.2%.
On to `CCC[C@@H]1CC(=O)N([C@@H](CC)C(N)=O)C1` [Brivaracetam], for which the cell viability amounted to 93.5%.
Turning to `Nc1ccncc1` [4-Aminopyridine], the cell viability is 88.3%.
In the case of `Cc1ncc(CNC(=O)N(CCCl)N=O)c(N)n1` [Nimustine Hydrochloride] it was 90.4%.
For the compound `CCCN1C[C@H](CSC)C[C@@H]2c3cccc4[nH]cc(c34)C[C@H]21` [Pergolide Mesylate], the cell viability was found to be 94.2%.
Turning to `CC(=O)OC1CN2CCC1CC2` (stereo not drawn) [Aceclidine HCl], the cell viability came out at 94.4%.
In the case of `C[N+](C)(C)CCCCCCCCCC[N+](C)(C)C` [Decamethonium Bromide] it was 86.8%.
As for `CN1c2ccccc2C(NCCCCCCC(=O)O)c2ccc(Cl)cc2S1(=O)=O` (stereo not drawn) [Tianeptine], the cell viability was determined as 89.2%.
For the compound `CN1c2ccccc2C(NCCCCCCC(=O)O)c2ccc(Cl)cc2S1(=O)=O` (stereo not drawn) [Tianeptine sodium], the cell viability was determined as 96.5%.
Next, `NCCc1cc(O)c(O)cc1O` [Oxidopamine (hydrobromide)]: 82.9%; `Nc1nc(N)nc(NC2CC2)n1` [Cyromazine]: 73.3%.
In the case of `O=[N+]([O-])O[C@@H]1CO[C@H]2[C@@H]1OC[C@@H]2O` [Isosorbide Mononitrate] it was 78.7%.
In the case of `CCCCCCC(=O)O[C@H]1CC[C@H]2[C@@H]3CCC4=CC(=O)CC[C@]4(C)[C@H]3CC[C@]12C` [Testosterone Enanthate] it was 89.9%; in that of `N[C@@H](Cc1ccc(N(CCCl)CCCl)cc1)C(=O)O` [Melphalan], 85.3%; in that of `CC(C)N(CCC(C(N)=O)(c1ccccc1)c1ccccn1)C(C)C` (stereo not drawn) [Disopyramide Phosphate], 84.8%.
Consider `CC(C)N(CCC(C(N)=O)(c1ccccc1)c1ccccn1)C(C)C` (stereo not drawn) [Disopyramide], for which the cell viability worked out at 91.9%.
As to `N=C(N)NN` [Aminoguanidine hydrochloride], the cell viability is 88.2%.
Next, `COc1ccc(CN2CCNCC2)c(OC)c1OC` [Trimetazidine dihydrochloride]: 79.8%; `CC[C@H]1CN2CC[C@H]1C[C@@H]2[C@@H](O)c1ccnc2ccc(OC)cc12` [Hydroquinidine]: 98.6%; `Cc1cc(O)ccc1Cl` [Chlorocresol]: 87.9%.
In the case of `O=c1[nH]c2ccccc2n1CCCN1CCC(n2c(=O)[nH]c3cc(Cl)ccc32)CC1` [Domperidone] it was 100%; in that of `C=CC[C@]1(O)CC[C@H]2[C@@H]3CCC4=CC(=O)CCC4=C3C=C[C@@]21C` [Altrenogest], 96.2%; in that of `C/C(=C\c1csc(C)n1)[C@@H]1C[C@@H]2O[C@]2(C)CCC[C@H](C)[C@H](O)[C@@H](C)C(=O)C(C)(C)[C@@H](O)CC(=O)O1` [Patupilone (EPO906, Epothilone B)], 57.9%.
Regarding `Cc1ccccc1-n1c(CF)nc2ccc(N)cc2c1=O` [Afloqualone], the cell viability is 84.4%.
In the case of `COc1ccc2c(c1)[C@]13CCCC[C@@H]1[C@H](C2)N(C)CC3` [Dextromethorphan hydrobromide hydrate] it was 72.5%.
In the case of `Cc1cccc(C(C)c2c[nH]cn2)c1C` (stereo not drawn) [Medetomidine HCl] it was 86%; in that of `Cc1cccc(C)c1NC1=NCCCS1` [Xylazine HCl], 98%.
In the case of `COc1cc2c(cc1OC)C1CC(=O)C(CC(C)C)CN1CC2` (stereo not drawn) [Tetrabenazine (Xenazine)] it was 93.5%; in that of `CN1C(=O)COc2c(C(=O)NC3CN4CCC3CC4)cc(Cl)cc21` (stereo not drawn) [Azasetron HCl], 103%.
For the compound `Clc1ccc(C(OCCN2CCCCC2)c2ccccc2)cc1` (stereo not drawn) [Cloperastine hydrochloride], the cell viability was determined as 78.8%.
`O=C(O[C@H]1C[N+]2(CCCOc3ccccc3)CCC1CC2)C(O)(c1cccs1)c1cccs1` [Aclidinium Bromide]: the cell viability is 93.8%.
For the compound `NC(=O)CN1CCCC1=O` [Piracetam], the cell viability was 90%.
Next, `O=P1(NCCCl)OCCCN1CCCl` (stereo not drawn) [Ifosfamide]: 89.1%; `Cc1cccc([C@H](C)c2c[nH]cn2)c1C` [Dexmedetomidine HCl]: 94.8%.
Next, `Cc1cccc([C@H](C)c2c[nH]cn2)c1C` [Dexmedetomidine]: 84.1%; `C#C[C@]1(O)C=C[C@H]2[C@@H]3CCC4=CC(=O)CC[C@@H]4[C@H]3CC[C@@]21CC` [Gestodene]: 88.1%.
`C[N+]12CCC(CC1)C(OC(=O)C(O)(c1ccccc1)c1ccccc1)C2` (stereo not drawn) [Clidinium Bromide]: the cell viability is 88.9%.
Next, `NCCc1c[nH]c2ccc(O)cc12` [Serotonin HCl]: 97.8%.
On to `CCC(COC(=O)c1cc(OC)c(OC)c(OC)c1)(c1ccccc1)N(C)C` (stereo not drawn) [Trimebutine], for which the cell viability came out at 94.2%.
Next, `CCNC1(c2cccs2)CCCCC1=O` (stereo not drawn) [Tiletamine Hydrochloride]: 95.7%; `C[C@@H]1CC[C@H]2[C@@H](C)C(=O)O[C@@H]3O[C@@]4(C)CC[C@@H]1[C@]32OO4` [Artemisinin]: 62.4%.
Consider `CC[C@H]1[C@@H]2C[C@H]3[C@@H]4N(C)c5ccccc5[C@]45C[C@@H]([C@@H]2[C@H]5O)N3[C@@H]1O` [Ajmaline], for which the cell viability amounted to 91.3%.
In the case of `CCC1(c2cccc(O)c2)CCCCN(C)C1` (stereo not drawn) [Meptazinol HCl], the cell viability turned out to be 92.2%.
`COC(=O)C1=CCCN(C)C1` [Arecoline HBr]: the cell viability was 76.7%.
Next, `COc1cc2c(cc1OC)[C@@]13CCN4CC5=CCO[C@H]6CC(=O)N2[C@H]1[C@H]6[C@H]5C[C@H]43` [Brucine sulfate salt hydrate]: 82.9%.
With `CC(C)N(CCNC(=O)CN1CCCC1=O)C(C)C` [Pramiracetam], the cell viability turned out to be 89.5%.
Take `CNCC(=O)c1ccc(O)c(O)c1` [Adrenalone HCl]: the cell viability came out at 101%.
Next, `C[C@]12CC[C@H]3[C@@H](CC[C@@]45O[C@@H]4C(O)=C(C#N)C[C@]35C)[C@@H]1CC[C@@H]2O` [Trilostane]: 92.6%; `Oc1cc(Cl)ccc1Oc1ccc(Cl)cc1Cl` [Triclosan]: 91.8%.
In the case of `C[C@@H]1O[C@@H](O[C@H]2C[C@@H](O)[C@]3(CO)[C@H]4[C@H](O)C[C@]5(C)[C@@H](C6=CC(=O)OC6)CC[C@]5(O)[C@@H]4CC[C@]3(O)C2)[C@H](O)[C@H](O)[C@H]1O` [Ouabain], the cell viability is 39.4%.
Regarding `NCC(O)c1ccc(O)cc1` (racemic) [(+,-)-Octopamine HCl], the cell viability stood at 94.9%.
Next, `C[N+]1(C)[C@@H]2C[C@@H](OC(=O)[C@H](CO)c3ccccc3)C[C@H]1[C@@H]1O[C@@H]12` [Methscopolamine]: 95%.
`CCC1(c2ccc(N)cc2)CCC(=O)NC1=O` (stereo not drawn) [Aminoglutethimide]: the cell viability is 95%.
Next, `CCN(C)C(=O)Oc1cccc([C@H](C)N(C)C)c1` [Rivastigmine]: 64.7%; `CCN(C)C(=O)Oc1cccc([C@H](C)N(C)C)c1` [Rivastigmine Tartrate]: 93%; `OC(c1ccccc1)(c1ccccc1)C1CCNCC1` [Azacyclonol]: 91.4%.
In the case of `C[N+]1(C)CCCC(OC(=O)C(O)(c2ccccc2)c2ccccc2)C1` (stereo not drawn) [Mepenzolate Bromide] it was 87.1%.
In the case of `CCC1(C)CC(=O)NC(=O)C1` [Bemegride] it was 98.9%; in that of `COc1ccc(CN(C(=O)[C@@H](N)Cc2c(C)cc(C(N)=O)cc2C)[C@@H](C)c2ncc(-c3ccccc3)[nH]2)cc1C(=O)O` [Eluxadoline], 89.1%.
Regarding `Oc1ccc(Cl)cc1Cc1cc(Cl)ccc1O` [Dichlorophene], the cell viability was 82.1%.
With `C=CN1CCCC1=O.II` [Povidone iodine], the cell viability was 82.2%.
In the case of `Cn1c(COP(=O)(NCCBr)NCCBr)cnc1[N+](=O)[O-]` [Evofosfamide (TH-302)] it was 78.2%; in that of `CC(=O)NC1CCSC1=O` (stereo not drawn) [Citiolone], 85.6%; in that of `O=P1(N(CCCl)CCCl)NCCCO1` (stereo not drawn) [Cyclophosphamide Monohydrate], 85.1%.
Consider `CN1C(=O)CCS(=O)(=O)C1c1ccc(Cl)cc1` (stereo not drawn) [Chlormezanone], for which the cell viability amounted to 95.6%.
`O.O.O.O=C([O-])C1[O][Sb]2[O]C(=O)C([O]2)C(C(=O)[O-])[O][Sb]2[O]C(=O)C1[O]2.[K+].[K+]` (stereo not drawn) [Antimonyl potassium tartrate trihydrate]: the cell viability stood at 98.1%.
In the case of `CCCCCCCCCCCCCCCC[n+]1ccccc1` [Cetylpyridinium Chloride] it was 45.9%; in that of `CNC(C)Cc1ccccc1OC` (stereo not drawn) [Methoxyphenamine Hydrochloride], 90.2%; in that of `C=C1C[C@@H]2[C@H](CC[C@]3(C)C(=O)CC[C@@H]23)[C@@]2(C)C=CC(=O)C=C12` [Exemestane], 76.8%.
In the case of `CCN(CC)CCOC(=O)C(O)(c1ccccc1)c1ccccc1` [Benactyzine hydrochloride] it was 85.8%; in that of `CN(C)C(=O)Oc1cccc([N+](C)(C)C)c1` [Neostigmine Bromide], 92.5%; in that of `COc1ccc(C(CN(C)C)C2(O)CCCCC2)cc1` (stereo not drawn) [Venlafaxine], 112%.
In the case of `COc1ccc(C(CN(C)C)C2(O)CCCCC2)cc1` (stereo not drawn) [Venlafaxine HCl] it was 73.5%.
Turning to `C[C@]12CCC(=O)C(O)=C1CC[C@@H]1[C@@H]2CC[C@]2(C)C(=O)CC[C@@H]12` [Formestane], the cell viability was 96.7%.
In the case of `CCCCCCCCC(=O)NCc1ccc(O)c(OC)c1` [Nonivamide] it was 85.3%.
In the case of `NCCCNCCSP(=O)(O)O` [Amifostine] it was 90.3%; in that of `CN(C)C(=O)Oc1ccc[n+](C)c1` [Pyridostigmine Bromide], 95.6%; in that of `O=c1[nH]c2ccccc2n1C1CCN(CCCC(c2ccc(F)cc2)c2ccc(F)cc2)CC1` [Pimozide], 92.2%.
